Measurements as given in PMC12038257.

Biological target: MdWRKY9 (UniProt D9ZJG3)
Assay: EMSA
Conditions: EMSA buffer, pH and temperature not given (refers to earlier method, ref. 35), GST added to equalize protein in JAZ assays, recombinant protein, protein details: His (pET32a(+)), label: 3' biotin

Sequence	binding result (increasing MdJAZ5-GST)	binding result (increasing MdJAZ10-GST)	binding result
ATCATATTTTTACACTAAAAAGTCAATCTTGGTACTATTTATCTTA (double strand) [MdNHX1 W-box W1 (-1255)]	binds more weakly	binds more weakly	
GCCAATCACCTTTTTATGTTGGTCAATGAATGGTTTAAGTTTCTGG (double strand) [MdSOS3 W-box probe 2 (-820)]			no binding
TATGAAAACTGGAACTTGGGTTGACTGAATTTACTTCTAATTTCAT (double strand) [MdSOS2 W-box W3 (-303), probe 2]	binds more weakly	binds more weakly	
TCACAGCCACGTGAATTGAATTGACCAATTTTCCAATTCTGTTTAT (double strand) [MdSOS2 W-box W2 (-149), probe 1]	binds more weakly	binds more weakly	
TCGAGTCTGATAAAATATTATTGACCGAGTGCCATTCTATTGCGAT (double strand) [MdSOS3 W-box probe 3 (-865)]			no binding

The exact form of at least one protein or probe is not confirmed. No signal at the amounts used counts as a negative. A weaker result is weaker than the reference pair of the same experiment. At least one verdict was read from the data and is not stated in words by the source.
